Measurements published in the supplement of paper PMC6411743.
± gives the standard deviation of the averaged measurements. The list shows a part of the results, in another mix than the full data.

Protein sequences, listed by entry. Tags and fused reporters are not part of them. Lines headed by an entry give the natural chain unless they say otherwise; changes in a name come on top.
UniProt Q14202: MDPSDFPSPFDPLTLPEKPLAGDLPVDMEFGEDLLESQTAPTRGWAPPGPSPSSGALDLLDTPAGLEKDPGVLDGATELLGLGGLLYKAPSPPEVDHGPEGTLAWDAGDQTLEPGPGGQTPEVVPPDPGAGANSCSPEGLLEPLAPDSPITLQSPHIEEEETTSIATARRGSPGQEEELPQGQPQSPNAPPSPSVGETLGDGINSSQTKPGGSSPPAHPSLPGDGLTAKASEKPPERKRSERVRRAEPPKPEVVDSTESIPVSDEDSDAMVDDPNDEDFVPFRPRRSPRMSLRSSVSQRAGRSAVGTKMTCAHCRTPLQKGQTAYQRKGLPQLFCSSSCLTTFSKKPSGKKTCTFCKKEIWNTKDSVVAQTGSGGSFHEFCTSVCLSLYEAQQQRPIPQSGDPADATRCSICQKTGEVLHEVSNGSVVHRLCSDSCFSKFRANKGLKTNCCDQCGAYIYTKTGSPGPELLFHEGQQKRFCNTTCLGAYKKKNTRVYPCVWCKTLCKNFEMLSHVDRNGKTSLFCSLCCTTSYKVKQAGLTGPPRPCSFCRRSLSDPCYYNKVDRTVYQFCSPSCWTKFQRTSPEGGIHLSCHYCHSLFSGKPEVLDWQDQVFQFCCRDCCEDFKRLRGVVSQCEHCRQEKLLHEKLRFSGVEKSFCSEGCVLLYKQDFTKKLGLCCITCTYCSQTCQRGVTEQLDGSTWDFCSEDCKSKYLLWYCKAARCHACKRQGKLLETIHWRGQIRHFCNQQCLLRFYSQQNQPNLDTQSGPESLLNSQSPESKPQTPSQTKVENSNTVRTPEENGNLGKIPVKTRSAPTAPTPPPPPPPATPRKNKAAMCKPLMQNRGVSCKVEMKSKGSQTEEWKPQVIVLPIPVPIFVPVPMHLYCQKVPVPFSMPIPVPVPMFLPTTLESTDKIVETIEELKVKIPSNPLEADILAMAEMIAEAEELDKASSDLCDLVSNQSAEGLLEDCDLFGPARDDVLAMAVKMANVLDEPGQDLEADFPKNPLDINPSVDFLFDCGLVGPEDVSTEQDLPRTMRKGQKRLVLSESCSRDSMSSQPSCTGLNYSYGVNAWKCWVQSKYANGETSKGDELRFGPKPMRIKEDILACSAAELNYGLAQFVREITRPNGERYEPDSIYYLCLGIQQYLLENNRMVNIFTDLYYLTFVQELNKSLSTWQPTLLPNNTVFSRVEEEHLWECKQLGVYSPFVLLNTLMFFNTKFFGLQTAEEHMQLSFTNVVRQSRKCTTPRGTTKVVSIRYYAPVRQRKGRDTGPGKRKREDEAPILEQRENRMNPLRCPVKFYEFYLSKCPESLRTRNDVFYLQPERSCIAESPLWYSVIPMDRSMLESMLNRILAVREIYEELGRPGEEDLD
UniProt Q9NR46: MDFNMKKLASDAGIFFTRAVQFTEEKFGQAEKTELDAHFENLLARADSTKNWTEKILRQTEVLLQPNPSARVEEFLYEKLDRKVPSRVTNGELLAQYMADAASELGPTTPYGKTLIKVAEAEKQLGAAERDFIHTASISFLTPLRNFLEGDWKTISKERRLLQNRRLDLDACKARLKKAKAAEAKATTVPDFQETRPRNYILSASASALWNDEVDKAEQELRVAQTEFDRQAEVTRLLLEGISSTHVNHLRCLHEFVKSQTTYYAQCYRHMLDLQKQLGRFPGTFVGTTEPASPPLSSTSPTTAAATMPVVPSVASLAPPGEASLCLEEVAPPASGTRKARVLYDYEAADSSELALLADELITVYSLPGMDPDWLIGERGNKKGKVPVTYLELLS
UniProt Q14919: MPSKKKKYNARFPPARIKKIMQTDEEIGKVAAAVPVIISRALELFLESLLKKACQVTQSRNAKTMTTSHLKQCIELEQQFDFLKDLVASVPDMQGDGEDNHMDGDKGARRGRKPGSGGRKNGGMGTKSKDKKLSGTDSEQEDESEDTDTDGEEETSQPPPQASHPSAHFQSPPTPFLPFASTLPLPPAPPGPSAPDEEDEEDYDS
UniProt Q14BN4: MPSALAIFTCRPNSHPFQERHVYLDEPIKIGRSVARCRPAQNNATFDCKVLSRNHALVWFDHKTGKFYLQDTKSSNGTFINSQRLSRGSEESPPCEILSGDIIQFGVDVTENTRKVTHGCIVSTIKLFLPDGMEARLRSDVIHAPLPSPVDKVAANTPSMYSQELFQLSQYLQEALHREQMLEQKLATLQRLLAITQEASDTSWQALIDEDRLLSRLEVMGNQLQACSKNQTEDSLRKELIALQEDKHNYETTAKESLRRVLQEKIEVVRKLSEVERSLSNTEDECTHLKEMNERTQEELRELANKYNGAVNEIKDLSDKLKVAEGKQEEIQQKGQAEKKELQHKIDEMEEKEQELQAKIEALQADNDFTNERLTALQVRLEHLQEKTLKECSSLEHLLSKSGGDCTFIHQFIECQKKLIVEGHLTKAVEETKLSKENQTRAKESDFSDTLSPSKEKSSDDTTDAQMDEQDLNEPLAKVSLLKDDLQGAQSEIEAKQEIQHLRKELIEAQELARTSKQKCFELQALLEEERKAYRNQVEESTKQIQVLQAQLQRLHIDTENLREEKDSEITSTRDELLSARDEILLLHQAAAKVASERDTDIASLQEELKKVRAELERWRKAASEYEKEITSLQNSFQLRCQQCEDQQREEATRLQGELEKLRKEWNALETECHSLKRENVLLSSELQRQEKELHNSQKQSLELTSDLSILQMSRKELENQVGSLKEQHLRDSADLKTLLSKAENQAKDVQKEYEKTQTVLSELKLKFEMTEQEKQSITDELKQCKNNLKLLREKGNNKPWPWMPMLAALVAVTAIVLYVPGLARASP
UniProt Q16718, whole entry: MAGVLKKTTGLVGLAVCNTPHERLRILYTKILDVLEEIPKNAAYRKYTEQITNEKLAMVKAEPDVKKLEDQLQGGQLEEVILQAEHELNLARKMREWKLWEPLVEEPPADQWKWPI
UniProt O15372, whole entry: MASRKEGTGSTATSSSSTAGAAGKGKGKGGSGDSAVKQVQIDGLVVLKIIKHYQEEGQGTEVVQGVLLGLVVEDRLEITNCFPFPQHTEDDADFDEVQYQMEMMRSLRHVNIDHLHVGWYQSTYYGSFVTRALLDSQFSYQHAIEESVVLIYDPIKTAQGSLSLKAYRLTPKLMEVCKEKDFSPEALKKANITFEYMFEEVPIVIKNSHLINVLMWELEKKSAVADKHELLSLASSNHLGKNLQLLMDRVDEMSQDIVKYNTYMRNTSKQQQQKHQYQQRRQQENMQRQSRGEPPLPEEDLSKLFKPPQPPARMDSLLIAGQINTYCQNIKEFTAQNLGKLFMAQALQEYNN
UniProt Q9NRA8: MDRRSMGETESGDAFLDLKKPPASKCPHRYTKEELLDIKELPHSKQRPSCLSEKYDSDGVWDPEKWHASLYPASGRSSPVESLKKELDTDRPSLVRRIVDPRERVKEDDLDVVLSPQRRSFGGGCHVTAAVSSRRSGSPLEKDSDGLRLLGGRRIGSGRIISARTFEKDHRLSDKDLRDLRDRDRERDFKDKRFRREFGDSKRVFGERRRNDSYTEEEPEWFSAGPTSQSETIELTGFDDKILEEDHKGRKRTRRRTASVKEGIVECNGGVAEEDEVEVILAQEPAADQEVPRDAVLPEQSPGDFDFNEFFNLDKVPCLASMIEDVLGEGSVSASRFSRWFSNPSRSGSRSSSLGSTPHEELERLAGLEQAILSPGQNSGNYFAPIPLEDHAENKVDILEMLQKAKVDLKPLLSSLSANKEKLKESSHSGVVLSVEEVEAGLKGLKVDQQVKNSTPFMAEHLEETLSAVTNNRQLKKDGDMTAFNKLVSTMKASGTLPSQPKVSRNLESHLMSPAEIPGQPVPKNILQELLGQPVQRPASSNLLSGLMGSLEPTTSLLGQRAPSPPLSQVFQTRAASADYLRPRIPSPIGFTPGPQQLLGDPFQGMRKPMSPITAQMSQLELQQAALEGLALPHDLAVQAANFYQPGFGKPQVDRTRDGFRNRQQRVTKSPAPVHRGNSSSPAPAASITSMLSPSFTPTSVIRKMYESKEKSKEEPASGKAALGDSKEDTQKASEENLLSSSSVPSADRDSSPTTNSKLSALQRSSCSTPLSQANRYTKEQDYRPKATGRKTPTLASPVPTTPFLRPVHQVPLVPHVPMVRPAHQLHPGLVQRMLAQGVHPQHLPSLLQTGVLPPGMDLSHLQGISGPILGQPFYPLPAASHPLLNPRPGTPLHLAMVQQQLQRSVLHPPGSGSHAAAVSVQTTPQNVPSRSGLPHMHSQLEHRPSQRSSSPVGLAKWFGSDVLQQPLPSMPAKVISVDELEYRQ
UniProt Q9NX63: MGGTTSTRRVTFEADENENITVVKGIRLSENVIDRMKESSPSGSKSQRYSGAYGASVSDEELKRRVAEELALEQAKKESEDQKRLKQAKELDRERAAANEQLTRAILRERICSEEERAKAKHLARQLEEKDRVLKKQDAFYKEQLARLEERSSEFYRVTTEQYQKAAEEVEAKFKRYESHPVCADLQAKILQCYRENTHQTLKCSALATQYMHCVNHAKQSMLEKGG
UniProt B0I1T2: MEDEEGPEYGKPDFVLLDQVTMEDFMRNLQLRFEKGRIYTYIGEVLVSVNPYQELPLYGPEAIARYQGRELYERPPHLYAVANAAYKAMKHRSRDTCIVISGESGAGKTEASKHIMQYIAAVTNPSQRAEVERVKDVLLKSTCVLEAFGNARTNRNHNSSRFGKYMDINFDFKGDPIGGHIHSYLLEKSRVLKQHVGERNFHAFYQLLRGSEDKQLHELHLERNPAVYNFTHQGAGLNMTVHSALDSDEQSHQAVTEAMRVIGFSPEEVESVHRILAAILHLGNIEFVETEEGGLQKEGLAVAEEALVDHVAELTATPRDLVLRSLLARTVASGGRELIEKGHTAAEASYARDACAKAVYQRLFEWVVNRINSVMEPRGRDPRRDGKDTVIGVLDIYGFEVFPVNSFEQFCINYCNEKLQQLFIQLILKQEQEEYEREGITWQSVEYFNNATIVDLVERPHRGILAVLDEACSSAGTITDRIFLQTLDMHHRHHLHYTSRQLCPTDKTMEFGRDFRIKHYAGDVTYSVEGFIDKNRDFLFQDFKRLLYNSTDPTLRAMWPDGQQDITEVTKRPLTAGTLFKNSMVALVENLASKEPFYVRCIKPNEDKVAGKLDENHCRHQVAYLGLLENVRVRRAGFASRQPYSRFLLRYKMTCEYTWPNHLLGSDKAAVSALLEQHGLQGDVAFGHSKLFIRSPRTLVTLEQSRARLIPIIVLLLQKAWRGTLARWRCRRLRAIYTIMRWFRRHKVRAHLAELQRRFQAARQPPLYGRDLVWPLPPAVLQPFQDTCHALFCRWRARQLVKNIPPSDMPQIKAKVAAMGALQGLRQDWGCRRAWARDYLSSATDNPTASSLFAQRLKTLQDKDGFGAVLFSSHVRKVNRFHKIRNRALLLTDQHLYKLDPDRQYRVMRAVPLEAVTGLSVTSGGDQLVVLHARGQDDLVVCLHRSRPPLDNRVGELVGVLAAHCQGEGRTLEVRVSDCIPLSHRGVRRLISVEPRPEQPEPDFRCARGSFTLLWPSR
UniProt A5PLN9: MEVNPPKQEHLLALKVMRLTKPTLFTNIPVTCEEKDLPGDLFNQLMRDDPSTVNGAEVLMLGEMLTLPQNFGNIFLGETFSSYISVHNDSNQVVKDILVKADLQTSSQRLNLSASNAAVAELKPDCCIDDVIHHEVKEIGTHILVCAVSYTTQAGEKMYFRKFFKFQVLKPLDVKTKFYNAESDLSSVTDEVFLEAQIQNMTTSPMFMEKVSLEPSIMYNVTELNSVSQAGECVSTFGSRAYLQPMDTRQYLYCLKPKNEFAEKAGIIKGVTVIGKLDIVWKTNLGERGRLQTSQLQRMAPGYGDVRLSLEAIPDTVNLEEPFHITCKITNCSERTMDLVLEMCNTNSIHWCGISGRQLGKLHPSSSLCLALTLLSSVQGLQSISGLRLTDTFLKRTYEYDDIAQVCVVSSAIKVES
UniProt Q12905: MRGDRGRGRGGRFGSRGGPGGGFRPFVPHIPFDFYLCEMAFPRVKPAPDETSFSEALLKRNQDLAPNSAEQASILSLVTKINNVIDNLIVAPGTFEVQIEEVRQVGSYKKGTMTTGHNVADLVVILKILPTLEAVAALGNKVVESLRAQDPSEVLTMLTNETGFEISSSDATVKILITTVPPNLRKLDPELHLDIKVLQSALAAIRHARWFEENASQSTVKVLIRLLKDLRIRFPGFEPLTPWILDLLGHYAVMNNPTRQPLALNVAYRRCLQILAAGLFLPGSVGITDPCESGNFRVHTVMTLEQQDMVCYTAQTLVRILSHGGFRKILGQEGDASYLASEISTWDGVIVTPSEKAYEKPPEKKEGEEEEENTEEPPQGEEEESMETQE
UniProt Q16563: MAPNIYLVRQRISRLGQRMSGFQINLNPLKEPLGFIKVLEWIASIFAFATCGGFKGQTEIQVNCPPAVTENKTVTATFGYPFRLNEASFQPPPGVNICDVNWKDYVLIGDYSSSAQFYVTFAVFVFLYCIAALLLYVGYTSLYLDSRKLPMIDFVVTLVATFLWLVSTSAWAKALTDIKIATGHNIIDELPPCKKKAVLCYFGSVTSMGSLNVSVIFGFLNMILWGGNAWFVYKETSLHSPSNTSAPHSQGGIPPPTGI

Compound: Nc1ncnc2c1ncn2[C@@H]1O[C@H](COP(=O)(O)OP(=O)(O)NP(=O)(O)O)[C@@H](O)[C@H]1O [adenylyl imidodiphosphate]
Assay: NP40-soluble protein abundance relative to vehicle (solubility fold change) (ratio); higher = more soluble protein in presence of AMP-PNP
Procedure, shortened: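 Eight concentrations, 0.1 to 10 mM, were tested on Jurkat crude lysate for 10 min at room temperature and then 3 min at 37 °C, in three independent experiments. The lysate was solubilised with 0.8% NP40 and benzonase, ultracentrifuged, and the supernatant TMT-labelled for LC-MS/MS. Each value is the fold change against the detergent-processed vehicle in its own replicate, from vsn-normalised intensities.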

Row | Target | NP40-soluble protein abundance (concentration: 1mM) | NP40-soluble protein abundance (concentration: 2mM) | NP40-soluble protein abundance (concentration: 4mM) | NP40-soluble protein abundance (concentration: 6mM) | NP40-soluble protein abundance (concentration: 8mM) | NP40-soluble protein abundance (concentration: 10mM)
1 | B4DXZ6 and related entries (UniProt P51114) | 1.12 ± 0.029 | 1.17 ± 0.039 | 1.3 ± 0.055 | 1.43 ± 0.15 | 1.55 ± 0.2 | 1.62 ± 0.2
2 | A6NHB5 and related entries (UniProt Q14202) | 1.01 ± 0.037 | 1 ± 0.026 | 1.06 ± 0.053 | 1.03 ± 0.036 | 1.03 ± 0.057 | 1.06 ± 0.045
3 | B7ZC38 and related entries (UniProt Q9NR46) | 0.964 ± 0.051 | 1.02 ± 0.086 | 0.956 ± 0.067 | 0.953 ± 0.048 | 0.933 ± 0.075 | 0.916 ± 0.055
4 | C9JCC6 and related entries (UniProt Q14919) | 0.971 ± 0.14 | 1.04 ± 0.048 | 0.951 ± 0.098 | 0.903 ± 0.12 | 0.922 ± 0.08 | 0.903 ± 0.12
5 | B7Z863 and related entries (UniProt Q14BN4) | 1 ± 0.033 | 1.05 ± 0.037 | 1.01 ± 0.034 | 0.982 ± 0.053 | 0.932 ± 0.024 | 0.983 ± 0.016
6 | C9IZN5 and related entries (UniProt Q16718) | 0.992 ± 0.064 | 0.934 ± 0.027 | 1.02 ± 0.051 | 0.893 ± 0.032 | 0.916 ± 0.038 | 0.803 ± 0.035
7 | C9J2U0 and related entries (UniProt P24864) | 0.913 ± 0.0092 | 0.822 ± 0.076 | 0.935 ± 0.011 | 0.936 ± 0.032 | 0.9933 ± 0.0062 | 0.953 ± 0.07
8 | B3KS98 and related entries (UniProt O15372) | 1.02 ± 0.028 | 1 ± 0.048 | 1.06 ± 0.072 | 1.15 ± 0.077 | 1.2 ± 0.073 | 1.27 ± 0.12
9 | B1AKL4 and related entries (UniProt Q9NRA8) | 1.03 ± 0.032 | 1.05 ± 0.033 | 1.03 ± 0.033 | 0.995 ± 0.047 | 0.97 ± 0.044 | 0.982 ± 0.013
10 | C9JRZ6 and related entries (UniProt Q9NX63) | 1.03 ± 0.062 | 1.04 ± 0.044 | 0.954 ± 0.052 | 0.95 ± 0.1 | 0.95 ± 0.083 | 0.95 ± 0.1
11 | MYO1G (UniProt B0I1T2) | 1.14 ± 0.074 | 1.12 ± 0.11 | 1.27 ± 0.22 | 1.34 ± 0.3 | 1.44 ± 0.43 | 1.47 ± 0.46
12 | UniProt A5PLN9 and related entries | 0.966 ± 0.02 | 0.943 ± 0.019 | 0.963 ± 0.015 | 0.939 ± 0.017 | 0.973 ± 0.032 | 0.9378 ± 0.0061
13 | B4DY09 and related entries (UniProt Q12905) | 1.06 ± 0.025 | 1.04 ± 0.041 | 1.07 ± 0.052 | 1.16 ± 0.032 | 1.18 ± 0.048 | 1.19 ± 0.058
14 | B4DGU4 and related entries (UniProt P35222) | 1 ± 0.052 | 0.9941 ± 0.0074 | 0.989 ± 0.021 | 0.981 ± 0.025 | 0.972 ± 0.024 | 0.966 ± 0.018
15 | C9JYN0 and related entries (UniProt Q16563) | 1.01 ± 0.015 | 1.06 ± 0.12 | 1.05 ± 0.042 | 1.12 ± 0.12 | 1.12 ± 0.057 | 1.14 ± 0.17
